Experimental findings from doi:10.1101/2024.08.13.607559 are described below.

The target in this assay is T1, Mitochondrial ribosomal protein small subunit 34 (Mrps34), zebrafish (zebrafish (endogenous in 24hpf embryos)) (UniProt F1QEG6).
T1 sequence: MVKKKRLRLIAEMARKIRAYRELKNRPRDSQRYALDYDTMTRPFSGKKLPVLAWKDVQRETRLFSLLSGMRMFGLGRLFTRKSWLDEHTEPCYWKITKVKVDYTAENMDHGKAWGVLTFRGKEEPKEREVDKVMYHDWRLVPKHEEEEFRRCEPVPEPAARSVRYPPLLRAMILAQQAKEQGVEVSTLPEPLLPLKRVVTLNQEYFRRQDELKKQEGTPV
As to the kind of experiment: co-IP.

Results are given in words; binding and its absence hold for the method and conditions named. Binding seen in cells or lysates may run through a third protein. Binding calls can cover weak binding; strength is not graded here.

For full-length Foxg1, zebrafish, the binding result is reported as “binds”.

With “cleaved C-terminal Foxg1 fragment (C-Foxg1), zebrafish (domain or fragment)”, the binding result is given as “binds”.
